This passage reports median seed-adjusted z-score results from PubChem BioAssay AID1347426 (Functional Genomics Laboratory (NCATS/FGL), 2020).

Hit rate of the full screen: of about 31,000 sequences, about 1,400 (4.5%) were called active.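 Rule for the calls: active = median seed-adjusted z-score above 1 or below -1; inactive = the rest.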 The list shows a part of the results.

The experiment in a line: Novel Modifiers of Survival Motor Neuron (SMN) Protein: Gene Identification via Genome-wide siRNA Screen.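 Note: luminescence tracks full-length SMN protein made from the SMN2 reporter.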 As to conditions: HEK293T SMN2-luciferase reporter, siRNA knockdown, 72 h; actives lie on both sides. The essentials: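 HEK293T cells stably carrying an SMN2 promoter/splicing cassette–luciferase reporter were reverse-transfected with 1 pmol siRNA per well (druggable-genome library, 3 siRNAs per gene) and grown 72 h at 37 °C. Luminescence, normalized to negative-control siRNA and log10-transformed, was scored as MAD.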
Background: A reporter such as luciferase makes a cellular process visible.
With GGUCGGUGAGAGGAAUAAATT against LSAMP, the median seed-adjusted z-score is inactive: -0.12. With GAAUUUGUUCAUUAUCGUATT against UBE3A, the median seed-adjusted z-score was inactive: 0.0949. Next, GAGGUGAUCCGGGUCUACATT against EHD3: inactive: 0.569; GGACCCAACCUCAAUGAAATT against ARFIP2: inactive: 0.748. Take CGAUACCGGCUGAUGCUAATT against PTPRB: the median seed-adjusted z-score was inactive: -0.0981. For the sequence GUAAUACGAGGAAAUAGUATT against SNRPG, the median seed-adjusted z-score is active: -3.09. Take GACUAGGAAUAGAUUUACATT against VRK2: the median seed-adjusted z-score was inactive: -0.183. For GGACCACAAUGUACGGAAATT against ATP13A5, the median seed-adjusted z-score was inactive: 0.241.

As for GGAUGUACUUCUAUGAGUATT against B3GALNT1, the median seed-adjusted z-score was inactive: 0.128. Consider AGAUGAUCAGGGAGGCUGATT against CALM3, for which the median seed-adjusted z-score was inactive: 0.225.

Regarding GGUUAAGCAGCGCUUUUCATT against TESSP5, the median seed-adjusted z-score was inactive: 0. Take GCCUGAAUGCAGCCCAGUUTT against SP2: the median seed-adjusted z-score is inactive: -0.617. For GGCAGAAAUGUAAUAUUGATT against DCTN6, the median seed-adjusted z-score was inactive: 0.211. Regarding GGAUUUGGAACUUAUUAAATT against STX12, the median seed-adjusted z-score was inactive: -0.797. In the case of GGAGGGUUUCUAUCUUACUTT against WRN it was inactive: -0.00482.

Turning to CCCUUGAUCGGGACAAUUUTT against KIFAP3, the median seed-adjusted z-score is inactive: 0.403. Take CGGGAGAAGUCCUACCUGUTT against KIF19: the median seed-adjusted z-score is inactive: 0.342.

Take GGAUAGUUGUGGUAAGAAUTT against SRP14: the median seed-adjusted z-score is inactive: 0.0824.

UGGAAGAAUUUGUUUGUAATT against ADIPOR2: the median seed-adjusted z-score is inactive: -0.614. For the sequence CAGCCUUAAUUUGAAAGCATT against KCND3, the median seed-adjusted z-score was inactive: 0.282. As for GGAAGAAAAUGACGAACCATT against POLR3D, the median seed-adjusted z-score was inactive: -0.434. In the case of UGUAGAAGCAGAACCCAAATT against OSBPL1A, the median seed-adjusted z-score is inactive: 0.0845. With GCGUGAUCAUCGAUGUGGATT against SLC5A7, the median seed-adjusted z-score was inactive: 0.624. With UGAUGGAUGCGGAACUGUUTT against RALGDS, the median seed-adjusted z-score is inactive: -0.235. In the case of GCAAAGAUAGAAGAAGAUATT against DDI2 it was active: 1.27.

Turning to GAGCUGACUUCGGAACUAATT against LCN2, the median seed-adjusted z-score was inactive: 0.123. On to GCAAAGGUAUUUGAGCAUATT against CAT, for which the median seed-adjusted z-score is inactive: 0. On to GAGCGUAAAGUACCUGAUUTT against NMNAT3, for which the median seed-adjusted z-score was inactive: 0.0197. With CUAUAAUUCCAGAGCAUAATT against KLF5, the median seed-adjusted z-score is inactive: -0.338. In the case of GCAGGAUGCUGUCAACAUATT against PSMD4 it was active: 1.46. On to AGACAGUGUGGGUCCUGGATT against CD300E, for which the median seed-adjusted z-score was inactive: 0.337.

On to CCCUCACCGCUUUCAUCUUTT against TM7SF2, for which the median seed-adjusted z-score is inactive: -0.674.

Turning to CAGCGAAAAUGAUAUCAGATT against CTNNA3, the median seed-adjusted z-score was inactive: 0.249.

As to GGAGGGAUAUAACUAGAUATT against ACTR2, the median seed-adjusted z-score is inactive: 0.548.

Turning to GCACCAGGGAAGACCCUAATT against COX5B, the median seed-adjusted z-score is inactive: 0.45. Consider GGGCUGUUGAGGAAGAAGATT against FKBP8, for which the median seed-adjusted z-score was inactive: -0.304.

In the case of GGAGGCAACUGAUAGACUATT against DUSP14, the median seed-adjusted z-score was inactive: 0.0654.

Consider GCUAAGAUGAUGGUAAAUATT against PRSS35, for which the median seed-adjusted z-score is inactive: -0.0119. CACCAGUGCUUGUAAGCGATT against EOMES: the median seed-adjusted z-score was inactive: -0.0248. Next, GCAUCGUCAUGGUGUACUUTT against TM9SF4: inactive: -0.0191. Next, GCAUCGUCAUGAGUAUGUATT against XDH: inactive: 0.806. Consider GGAAAGUUAAGGUCGAUGATT against KTN1, for which the median seed-adjusted z-score was inactive: -0.233. Take GCCUUAAGGUAUUCGUGUATT against EXTL1: the median seed-adjusted z-score was inactive: 0. In the case of GAGCACUGCUACGACAUCUTT against DPP7 it was inactive: -0.217; in that of CAGUUGACAUCAGAGGAUATT against AKR1C4, inactive: -0.0323; in that of GAAUAUCCCUGAAUACGAATT against CHD3, inactive: 0.589.

As for GAUCUGUGCUAUACUGACATT against EFTUD2, the median seed-adjusted z-score was active: -1.25.

Turning to AGCUAACAGCGGCUCAAGATT against NR1H2, the median seed-adjusted z-score is inactive: 0.069. Next, AGAUGAUCAGCAGAAUUGATT against CSNK1A1L: inactive: -0.5. On to GCGUAUAAUCUAACUGGUUTT against ATRNL1, for which the median seed-adjusted z-score was inactive: -0.142.

“GGCAGAGCCUGACCACUUUTT against LOC100137047-PLA2G4B”: the median seed-adjusted z-score is inactive: -0.022. As to GCCUCAUAAUGAACGAAGATT against HEPHL1, the median seed-adjusted z-score was inactive: 0.0681. Turning to ACGCAUGUGUGAUCACAAATT against PSMB10, the median seed-adjusted z-score was inactive: 0.00939.

With GGUAUUUAUUGGACCCAGATT against KLF2, the median seed-adjusted z-score was inactive: 0.359.

With GCUUACGGCUUAGACAAAATT against HSPA8, the median seed-adjusted z-score was inactive: 0.462. Turning to AGCUGGUGUUGAUGCCCAATT against SCARB1, the median seed-adjusted z-score is inactive: 0.0715. With ACAUGAUCUAUGACUCGUATT against FAM57A, the median seed-adjusted z-score was inactive: 0.0434. With GCAUCUACCUCCUACGAGATT against ZSWIM2, the median seed-adjusted z-score was inactive: -0.199. In the case of CUCUGACAGUCUCAUCUUUTT against SPNS1 it was inactive: -0.0598; in that of GACCAAUGCUGCUGACAAATT against UNQ9391, inactive: -0.312.

As for CCGCAGUGGAAAUACCAUATT against ANGEL1, the median seed-adjusted z-score is inactive: -0.332. GGCAAAGUCUACAAGGUAATT against MYO3B: the median seed-adjusted z-score is inactive: 0.51. As to GCCUAUUGAUUUCGAGGAATT against CNTN5, the median seed-adjusted z-score is inactive: -0.236. In the case of CUCUCGUAGUGGAACUAAUTT against DGKE, the median seed-adjusted z-score was inactive: -0.0589. Regarding GAUAUUCACCAGAACAUGATT against AP1G1, the median seed-adjusted z-score was inactive: 0.0802.

As to GAGAGUAAGCAGAAUGAAATT against GJB6, the median seed-adjusted z-score was inactive: 0.0376. Take CAAGGACUCCCUUUACGGUTT against QPCTL: the median seed-adjusted z-score is inactive: -0.422.

Consider ACAUCAACAUCUUCGCAAUTT against CYP4F8, for which the median seed-adjusted z-score was inactive: 0.756. Take GCUACAUCUGGGUAGGAAATT against SCIN: the median seed-adjusted z-score was inactive: 0.509. On to GAGUGGUUCUUGAUGCUCATT against MAPK8IP2, for which the median seed-adjusted z-score is inactive: 0.284. On to AUCUUCAAUUUUUACCCAATT against DPYSL4, for which the median seed-adjusted z-score was inactive: 0.71. Take GGACCUUGUUAACAGUGGATT against APOBEC1: the median seed-adjusted z-score is inactive: -0.323.

For CCAACAUUCAAGUAACGCATT against SLTM, the median seed-adjusted z-score is inactive: 0.547. Regarding UGACCGACCUCAUCCGUAATT against PLA2G6, the median seed-adjusted z-score is inactive: -0.123. Next, GAGCAGAUGUAUGAACAUUTT against SP140: inactive: 0.186; CGGCAACUUCAAUAACAGUTT against LPHN1: active: -1.03.

Take GAUGAACCCUGGAACUUCATT against ZNF354B: the median seed-adjusted z-score is inactive: 0.393.

As to UCAUCUACAGGGAGACUUATT against SOAT2, the median seed-adjusted z-score was inactive: 0.612. Turning to GCUCGUUACUAGCAUCGUATT against NEO1, the median seed-adjusted z-score is inactive: 0.16. Consider AGCUCAACCAUAACGUGAATT against DIRAS2, for which the median seed-adjusted z-score is active: -1.25.

Consider CUAUCCACCUUCCUACAAATT against CNR2, for which the median seed-adjusted z-score is inactive: 0.33. Take AAUACCACAUGGAAAUGAATT against OSBPL10: the median seed-adjusted z-score is inactive: 0.247. As to GGUUUGAGCUGGAUCCAGATT against SLC5A6, the median seed-adjusted z-score is inactive: 0.994. On to UGGUCAACUAGAAUACAUATT against RGPD5, for which the median seed-adjusted z-score was inactive: -0.0931. Next, GGACACCACAGUACCUAAATT against IL22RA1: active: -1.14; CAUCUGUACUCAGAUAUUATT against NPFFR2: inactive: 0.0554. With GAUGAGGUCUUGUCCGAAATT against HECW1, the median seed-adjusted z-score is inactive: -0.878. In the case of GGGCGAAGGUUUUCGGUAUTT against ABCA3 it was inactive: -0.363; in that of GGAGGACUCCAGAAGAUGATT against ATF3, inactive: -0.000485; in that of CCCUACAAUUCACUCCUGATT against TUBG2, inactive: 0. Take CAACCUUAUUAUCAUUGAATT against SF3B3: the median seed-adjusted z-score is active: -2.53.

As for GCGAUCAUUUUGUUAGAAATT against ZNF521, the median seed-adjusted z-score is inactive: -0.331. In the case of CCCUCUAAGACCAAACUUATT against STAR it was inactive: 0.478; in that of GCUACGACCUGAAACUCUATT against GNAZ, inactive: -0.604. For GCACAUCAAGUUCUAUACATT against SLCO2A1, the median seed-adjusted z-score was inactive: -0.0778. Turning to GGAGAUAAAUACUAUGGAUTT against ZNF605, the median seed-adjusted z-score was inactive: -0.596. As to CGAGCAAUCAAGCAGAUCATT against EIF4A3, the median seed-adjusted z-score is inactive: 0.126. For GCAGAUCCAGGAAAACGGATT against TRIM67, the median seed-adjusted z-score was inactive: -0.431. Take GGUUCUGAAAUGUUCGUCATT against ZDHHC22: the median seed-adjusted z-score is inactive: 0.00446. As to CUGCAUUUCUUGAGCAUAATT against CDC45L, the median seed-adjusted z-score is inactive: -0.599. In the case of ACAUGACGAGGGUCUAUUATT against RAB38 it was inactive: -0.165; in that of CGUUCGGGCUCAUCUUUUATT against PSEN2, inactive: -0.147. For GGGAUCAACUUAGAAGAGATT against POU6F1, the median seed-adjusted z-score is inactive: 0.978. Next, GGCAGACACUGAGAACUUATT against GRPEL1: inactive: 0; CUCAUACAGUCUCAACAGATT against GTF2A2: inactive: 0.0457. For the sequence GGAAAAUCACAUUACUACATT against CTBP2, the median seed-adjusted z-score is inactive: -0.241. As for CUGCAUCACUCUCACUUUATT against CH25H, the median seed-adjusted z-score was inactive: -0.264.
